Residue numbers refer to the chain shown, from its start. Names and notes keep the numbering of the source. Results are given in words; binding and its absence hold for the method and conditions named. Some results given as binding are weak or reduced against the parent protein; the word gives no strength.

Data on four molecules can be found in PMC6348423, “Rapid Mapping of Protein Interactions Using Tag‐Transfer Photocrosslinkers” (Angewandte Chemie (International Ed. in English), 2018).

The target of this assay is T1, Skp (E. coli) (UniProt P0AEU7).
T1 sequence: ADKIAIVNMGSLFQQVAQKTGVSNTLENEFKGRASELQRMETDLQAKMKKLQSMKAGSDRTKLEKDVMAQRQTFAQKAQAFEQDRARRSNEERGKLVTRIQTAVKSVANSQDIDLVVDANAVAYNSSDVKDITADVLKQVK
Nature of the assay: cross-linking; Skp/OmpA complex assembled by dilution of urea-denatured OmpA into a Skp-containing solution; photoinduced crosslinking at 365 nm (UV LED or Hg-Xe lamp); non-reducing SDS-PAGE; tag transfer, enrichment on thiopropyl Sepharose 6B, LC-MS/MS; both purified.

B1: OmpA(W7C)[MTS-diazirine] (protein, UniProt P0A910 22-346)
chain: APKDNTCYTGAKLGWSQYHDTGFINNNGPTHENQLGAGAFGGYQVNPYVGFEMGYDWLGRMPYKGSVENGAYKAQGVQLTAKLGYPITDDLDIYTRLGGMVWRADTKSNVYGKNHDTGVSPVFAGGVEYAITPEIATRLEYQWTNNIGDAHTIGTRPDNGMLSLGVSYRFGQGEAAPVVAPAPAPAPEVQTKHFTLKSDVLFNFNKATLKPEGQAALDQLYSQLSNLDPKDGSVVVLGYTDRIGSDAYNQGLSERRAQSVVDYLISKGIPADKISARGMGESNPVTGNTCDNVKQRAALIDCLAPDRRVEIEVKGIKDVVTQPQA
modifications: Cys at 7 conjugated with MTS-diazirine
Regarding B1, the binding entry was “binds”.

B2: OmpA(T144C)[MTS-diazirine] (protein, UniProt P0A910 22-346)
chain: B1 chain with C7W, T144C
modifications: Cys at 144 conjugated with MTS-diazirine
Consider B2, for which the binding entry was “binds”.

B3: OmpA(T144C)[MTS-TFMD] (protein, UniProt P0A910 22-346)
chain: B1 chain with C7W, T144C
modifications: Cys at 144 conjugated with MTS-TFMD
Turning to B3, the binding entry was “binds”.

B4: OmpA(W7C)[MTS-TFMD] (protein, UniProt P0A910 22-346)
chain: B1 chain
modifications: Cys at 7 conjugated with MTS-TFMD
On to B4, for which the binding result is on record as “binds”.
